# The supplement of paper PMC9454738
# Some of the results follow. This data set is noisy: repeats of one test often differ as much as different tests do.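 Triple-negative MDA-MB-231 breast cancer cells and their brain-metastatic MDA-MB-231BRM derivative each stably expressed empty vector, full-length GLI1 or truncated tGLI1. CellTiter-Blue measured viability at 48 h relative to 1% DMSO vehicle. Compounds reducing viability 20% more in tGLI1 cells than in vector and GLI1 cells counted as tGLI1-selective.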
# Tested on: MDA-MB-231 GLI1
# Experiment: cell viability relative to vehicle (DMSO) control (fraction); higher = more viable cells (less growth inhibition)
# Details: 0.05 µM; treatment time 48 h
row,SMILES,cell viability
1,C[C@H]1[C@H](C)CC[C@]2(C(=O)O)CC[C@]3(C)C(=CC[C@@H]4[C@@]5(C)C[C@@H](O)[C@H](O)[C@@](C)(CO)[C@@H]5CC[C@]43C)[C@H]12 [Asiatic Acid],1.04
2,O=C1NC(=O)C(c2ccccc2[N+](=O)[O-])=C1Nc1ccc(O)c(Cl)c1,1.12
3,Cc1c(Cn2c(C)nc3c(C(=O)O)cc(N4CCOCC4)cc32)cccc1C(F)(F)F,1.09
4,Cc1ccc(NC(=O)c2ccc(CN3CCN(C)CC3)cc2)cc1Nc1nccc(-c2cccnc2)n1 [Imatinib (STI571)],1.29
5,CCC(=O)NCC[C@@H]1CCc2ccc3c(c21)CCO3 [Ramelteon (TAK-375)],1.07
6,NC(=O)Nc1cc(-c2cccc(F)c2)sc1C(=O)N[C@H]1CCCNC1,0.924
7,COc1cc2ncnc(Oc3ccc(CC(=O)Nc4cnn(C(C)C)c4)cc3)c2cc1OC,1.43
8,CC(C)(C)NS(=O)(=O)c1cncc(-c2cc(F)c3nc(N)nn3c2)c1,0.969
9,O=C(Nc1cc(C(F)(F)F)cc(C(F)(F)F)c1)c1cc(Cl)ccc1O,0.561
10,CN1CCC(COc2cnc(-c3cccc(Cn4nc(-c5cccc(C#N)c5)ccc4=O)c3)nc2)CC1,1.3
11,CC(C)CC(=O)Nc1n[nH]c2c1CN(C(=O)C1CCN(C)CC1)C2(C)C,0.916
12,COc1cc2ncc(-c3ccccc3)nc2cc1OC [Tyrphostin AG 1296],1.27
13,C1=N/C2=N/c3ccc(OCCN4CCCC4)c(c3)COC/C=C/COCc3cccc(c3)C(=C1)N2 [Pacritinib (SB1518)],1.11

# A second format for some results above.
row	SMILES	cell viability
1	C[C@H]1[C@H](C)CC[C@]2(C(=O)O)CC[C@]3(C)C(=CC[C@@H]4[C@@]5(C)C[C@@H](O)[C@H](O)[C@@](C)(CO)[C@@H]5CC[C@]43C)[C@H]12 [Asiatic Acid]	1.04
7	COc1cc2ncnc(Oc3ccc(CC(=O)Nc4cnn(C(C)C)c4)cc3)c2cc1OC	1.43
11	CC(C)CC(=O)Nc1n[nH]c2c1CN(C(=O)C1CCN(C)CC1)C2(C)C	0.916
